{
  "source": "PubChem BioAssay AID540256",
  "about": "(National Center for Advancing Translational Sciences (NCATS), 2011)",
  "note": "Out of some 300,000 compounds screened, about 3,700 (1.2%) were called active. This list was built around the results that the source calls inconclusive (neither active nor inactive); the mix of calls is not that of the screen. Calls follow the shape of the full dose curve; tested in HEK293 cells. A potency beside an inconclusive call is a rough fit, not a confirmed value.",
  "data": [
    {"experiment": "qHTS for Inhibitors of binding or entry into cells for Lassa Virus; also: nearly all actives have a fitted effect of over 50% in size; also: potency is read from the fitted curve at half-maximal effect", "settings": "Lassa virus pseudotype entry inhibition, cell reporter; series mostly up to 37.9 µM", "values": [
      {"molecule": "CC(=O)N1[C@@H]2CC3C4CC=C5C[C@@H](O)CC[C@]5(C)C4CC[C@]3(C)[C@@]21C(C)=O", "note": "(some centres not stated)", "Potency": "inconclusive: 4.47 µM [activator, partial curve, poor fit]"},
      {"molecule": "CCN(CC)S(=O)(=O)c1ccc(NC(=O)c2cc(-c3ccccc3)nc3ccccc23)cc1", "Potency": "inconclusive: 8.91 µM [inhibitor, partial curve, poor fit]"},
      {"molecule": "O=C(Nc1ccc(F)cc1F)c1cccc2c1C(=O)N(C1CCCCC1)C2", "Potency": "inconclusive: 20 µM [activator, single point]"},
      {"molecule": "COc1cccc(-n2c(SCC(=O)N3CCc4ccccc43)nc3c([nH]c4ccccc43)c2=O)c1", "Potency": "inconclusive: 0.562 µM [inhibitor, full curve, poor fit]"},
      {"molecule": "O=C(NCc1ccco1)C(c1ccccc1)N(Cc1ccccc1)C(=O)Cn1nnc2ccccc21", "note": "(configuration not stated)", "Potency": "inconclusive: 29.1 µM [inhibitor, single point]"},
      {"molecule": "COc1cc(NC(=O)CSc2nc(-c3cccs3)cc(C(F)(F)F)n2)cc(OC)c1OC", "Potency": "inactive"},
      {"molecule": "Cc1ccccc1/C=C/c1nc2ccccc2c(=O)n1CCc1ccccc1", "Potency": "inconclusive: 1.26 µM [inhibitor, partial curve, poor fit]"},
      {"molecule": "Cc1cc(C)c(O)c(-c2cc(C(=O)NCc3ccccc3)[nH]n2)c1", "Potency": "inconclusive: 15.8 µM [inhibitor, single point]"},
      {"molecule": "O=C(CSc1nc(=O)n(Cc2cccnc2)c2c1CCC2)Nc1cccc(Cl)c1", "Potency": "inconclusive: 1.78 µM [inhibitor, full curve]"},
      {"molecule": "Cc1ccc(Nc2nc(CSc3nnc(-c4cccs4)o3)cs2)cc1", "Potency": "inactive"},
      {"molecule": "COc1cc(/C=C/C(=O)c2ccc(C)c([N+](=O)[O-])c2)cc(OC)c1O", "Potency": "inactive"},
      {"molecule": "CC/C(C)=N/NC(=S)NCc1ccco1", "Potency": "inconclusive: 18.4 µM [inhibitor, single point]"},
      {"molecule": "Cc1cccc(NC(=O)c2cc(-c3cc(C)c(C)cc3O)n[nH]2)c1", "Potency": "inconclusive: 0.447 µM [activator, partial curve, poor fit]"},
      {"molecule": "OC(Cn1c2ccccc2c2ccccc21)C[n+]1cccc2ccccc21", "note": "(configuration not stated)", "Potency": "inconclusive: 11.6 µM [inhibitor, single point]"},
      {"molecule": "O=C(O)c1cccc(-n2cccc2/C=C2\\NC(=O)N(Cc3ccc(F)cc3)C2=O)c1", "Potency": "inconclusive: 10 µM [inhibitor, partial curve, poor fit]"},
      {"molecule": "OCCN(CC#CC(O)(c1ccccc1)c1cccc(F)c1)CCO", "note": "(configuration not stated)", "Potency": "inconclusive: 3.55 µM [inhibitor, single point]"},
      {"molecule": "COC(=O)C=P(c1ccccc1)(c1ccccc1)c1ccccc1", "Potency": "inconclusive: 1.06 µM [activator, full curve, poor fit]"}
    ]}
  ]
}
